# Measured values as given in ChEMBL document CHEMBL1150589, “New sesquiterpenoids from the root of Guatteria multivenia” (J Nat Prod, 2002).
# Tested on: Candida albicans
# Assay: Antimicrobial activity against Candida albicans
# Assay type: functional, organism-based
# In short: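 Antimicrobial assay run per an earlier method. Both IC50 and MIC were reported in µg/mL. Amphotericin B was the positive control for C. albicans and C. neoformans.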
smiles,measurement,value
C[C@@H]1[C@H](O)[C@@H](C)/C=C/C=C/C=C/C=C/C=C/C=C/C=C/[C@H](O[C@@H]2O[C@H](C)[C@@H](O)[C@H](N)[C@@H]2O)C[C@@H]2O[C@](O)(C[C@@H](O)C[C@@H](O)[C@H](O)CC[C@@H](O)C[C@@H](O)CC(=O)O[C@H]1C)C[C@H](O)[C@H]2C(=O)O [AMPHOTERICIN B],MIC,0.31 µg/mL
